Measurements as given in article PMC10794146.
Read-outs that look alike come from different tables or passages of the source. Results are given in words; binding and its absence hold for the method and conditions named. Binding seen in cells or lysates may run through a third protein. Some results given as binding are weak or reduced against the parent protein; the word gives no strength. For some of these results: Where a sequence is shown, tags or fusion partners need not be part of it.

By UniProt entry, the sequences of proteins in these tests, tags left out.
UniProt P35579: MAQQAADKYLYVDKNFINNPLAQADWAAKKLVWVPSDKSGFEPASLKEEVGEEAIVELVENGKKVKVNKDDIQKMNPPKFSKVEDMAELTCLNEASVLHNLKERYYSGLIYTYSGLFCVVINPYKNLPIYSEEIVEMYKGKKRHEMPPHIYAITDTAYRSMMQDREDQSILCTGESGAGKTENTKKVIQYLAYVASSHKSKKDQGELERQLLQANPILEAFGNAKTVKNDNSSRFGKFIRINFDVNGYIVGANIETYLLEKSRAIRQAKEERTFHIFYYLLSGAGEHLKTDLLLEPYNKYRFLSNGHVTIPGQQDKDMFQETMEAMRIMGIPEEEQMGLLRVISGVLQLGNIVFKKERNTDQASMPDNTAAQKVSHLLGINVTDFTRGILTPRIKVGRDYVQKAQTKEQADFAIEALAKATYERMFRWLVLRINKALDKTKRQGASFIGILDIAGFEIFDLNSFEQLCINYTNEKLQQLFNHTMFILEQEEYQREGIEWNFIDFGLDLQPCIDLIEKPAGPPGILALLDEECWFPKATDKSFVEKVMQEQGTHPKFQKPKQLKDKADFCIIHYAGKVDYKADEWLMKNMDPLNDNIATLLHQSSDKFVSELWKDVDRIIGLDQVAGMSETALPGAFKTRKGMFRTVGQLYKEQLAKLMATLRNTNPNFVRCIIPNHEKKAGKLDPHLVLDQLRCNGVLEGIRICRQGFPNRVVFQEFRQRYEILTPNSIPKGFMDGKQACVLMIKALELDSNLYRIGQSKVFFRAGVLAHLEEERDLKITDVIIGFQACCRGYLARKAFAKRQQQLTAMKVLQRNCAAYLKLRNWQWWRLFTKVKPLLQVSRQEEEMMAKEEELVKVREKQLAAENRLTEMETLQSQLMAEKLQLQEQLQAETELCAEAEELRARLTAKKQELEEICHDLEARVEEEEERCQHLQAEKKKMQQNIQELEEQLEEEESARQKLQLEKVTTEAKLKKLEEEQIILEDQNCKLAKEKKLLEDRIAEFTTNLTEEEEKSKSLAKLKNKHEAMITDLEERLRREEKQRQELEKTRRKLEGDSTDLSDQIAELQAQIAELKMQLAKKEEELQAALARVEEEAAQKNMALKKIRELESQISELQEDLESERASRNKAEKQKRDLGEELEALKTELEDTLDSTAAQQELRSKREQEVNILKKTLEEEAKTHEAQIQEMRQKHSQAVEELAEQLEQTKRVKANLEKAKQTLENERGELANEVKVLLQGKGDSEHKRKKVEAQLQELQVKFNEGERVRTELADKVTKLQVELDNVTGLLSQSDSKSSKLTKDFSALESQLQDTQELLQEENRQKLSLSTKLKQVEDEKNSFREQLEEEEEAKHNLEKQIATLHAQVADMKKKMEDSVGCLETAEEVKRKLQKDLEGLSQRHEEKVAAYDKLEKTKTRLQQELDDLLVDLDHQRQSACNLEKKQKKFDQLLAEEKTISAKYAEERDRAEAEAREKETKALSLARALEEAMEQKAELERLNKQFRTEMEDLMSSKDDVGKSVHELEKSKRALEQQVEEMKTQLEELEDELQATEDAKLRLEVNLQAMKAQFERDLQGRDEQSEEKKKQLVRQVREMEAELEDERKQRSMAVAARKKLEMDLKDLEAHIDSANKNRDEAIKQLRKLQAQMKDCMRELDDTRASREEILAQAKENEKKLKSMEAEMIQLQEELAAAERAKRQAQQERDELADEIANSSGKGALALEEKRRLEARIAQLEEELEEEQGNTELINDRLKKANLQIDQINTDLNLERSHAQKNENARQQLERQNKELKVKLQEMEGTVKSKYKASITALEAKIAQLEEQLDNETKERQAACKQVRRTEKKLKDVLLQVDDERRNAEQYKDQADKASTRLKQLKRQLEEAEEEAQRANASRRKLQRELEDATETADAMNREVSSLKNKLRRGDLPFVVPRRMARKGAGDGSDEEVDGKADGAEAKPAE
UniProt P35580: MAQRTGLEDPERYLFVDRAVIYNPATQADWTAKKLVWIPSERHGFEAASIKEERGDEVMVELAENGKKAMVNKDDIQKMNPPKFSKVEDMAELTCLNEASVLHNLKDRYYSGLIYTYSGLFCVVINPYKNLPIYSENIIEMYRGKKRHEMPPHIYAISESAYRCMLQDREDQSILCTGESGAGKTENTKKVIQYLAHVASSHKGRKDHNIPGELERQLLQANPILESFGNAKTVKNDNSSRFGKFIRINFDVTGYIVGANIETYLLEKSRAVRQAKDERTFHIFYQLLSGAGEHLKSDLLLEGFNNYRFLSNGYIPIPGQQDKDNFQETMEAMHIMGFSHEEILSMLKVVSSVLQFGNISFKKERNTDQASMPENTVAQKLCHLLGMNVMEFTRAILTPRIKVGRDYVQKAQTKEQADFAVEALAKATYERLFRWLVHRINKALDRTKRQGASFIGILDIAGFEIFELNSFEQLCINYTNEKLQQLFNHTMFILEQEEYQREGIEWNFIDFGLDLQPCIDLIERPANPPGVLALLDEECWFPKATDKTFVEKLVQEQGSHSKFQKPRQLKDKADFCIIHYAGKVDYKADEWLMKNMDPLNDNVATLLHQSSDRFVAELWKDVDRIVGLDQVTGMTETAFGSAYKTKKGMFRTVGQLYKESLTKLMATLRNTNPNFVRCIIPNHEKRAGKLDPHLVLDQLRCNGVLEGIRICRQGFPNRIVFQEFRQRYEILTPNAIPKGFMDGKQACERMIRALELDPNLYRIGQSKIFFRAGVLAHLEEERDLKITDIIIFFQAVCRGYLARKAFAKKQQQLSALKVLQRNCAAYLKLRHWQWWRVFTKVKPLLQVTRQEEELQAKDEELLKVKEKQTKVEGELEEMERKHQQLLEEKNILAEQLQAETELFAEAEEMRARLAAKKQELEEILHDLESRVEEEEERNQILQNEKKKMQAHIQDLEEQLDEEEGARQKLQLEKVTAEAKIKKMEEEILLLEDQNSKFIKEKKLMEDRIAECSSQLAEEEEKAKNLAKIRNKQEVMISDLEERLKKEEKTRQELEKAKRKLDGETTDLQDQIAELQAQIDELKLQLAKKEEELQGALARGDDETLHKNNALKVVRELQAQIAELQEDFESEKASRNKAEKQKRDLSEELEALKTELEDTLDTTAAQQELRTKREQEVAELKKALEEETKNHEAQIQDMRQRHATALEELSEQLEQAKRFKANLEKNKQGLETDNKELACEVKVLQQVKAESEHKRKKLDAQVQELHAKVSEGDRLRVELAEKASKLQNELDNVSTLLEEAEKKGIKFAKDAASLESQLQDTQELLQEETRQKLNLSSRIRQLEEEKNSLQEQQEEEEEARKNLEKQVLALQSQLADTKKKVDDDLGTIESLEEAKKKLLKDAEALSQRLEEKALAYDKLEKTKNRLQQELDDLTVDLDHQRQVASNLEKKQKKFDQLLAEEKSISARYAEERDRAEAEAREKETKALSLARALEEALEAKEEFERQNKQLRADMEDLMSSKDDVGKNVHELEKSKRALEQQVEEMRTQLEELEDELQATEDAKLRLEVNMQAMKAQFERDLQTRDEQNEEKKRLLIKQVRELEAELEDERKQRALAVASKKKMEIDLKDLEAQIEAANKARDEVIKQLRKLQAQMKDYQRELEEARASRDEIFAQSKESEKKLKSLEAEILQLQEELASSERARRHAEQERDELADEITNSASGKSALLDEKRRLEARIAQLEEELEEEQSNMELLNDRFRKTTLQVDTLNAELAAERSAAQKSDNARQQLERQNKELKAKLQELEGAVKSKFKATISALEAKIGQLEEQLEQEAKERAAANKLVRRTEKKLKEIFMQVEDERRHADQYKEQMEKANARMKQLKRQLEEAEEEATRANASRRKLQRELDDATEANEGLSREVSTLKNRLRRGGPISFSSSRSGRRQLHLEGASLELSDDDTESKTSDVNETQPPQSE

T1: Laminin-5γ-2 (LAMC2) (human (endogenous in A549 and MCF7)) (UniProt Q13753)
T1 sequence: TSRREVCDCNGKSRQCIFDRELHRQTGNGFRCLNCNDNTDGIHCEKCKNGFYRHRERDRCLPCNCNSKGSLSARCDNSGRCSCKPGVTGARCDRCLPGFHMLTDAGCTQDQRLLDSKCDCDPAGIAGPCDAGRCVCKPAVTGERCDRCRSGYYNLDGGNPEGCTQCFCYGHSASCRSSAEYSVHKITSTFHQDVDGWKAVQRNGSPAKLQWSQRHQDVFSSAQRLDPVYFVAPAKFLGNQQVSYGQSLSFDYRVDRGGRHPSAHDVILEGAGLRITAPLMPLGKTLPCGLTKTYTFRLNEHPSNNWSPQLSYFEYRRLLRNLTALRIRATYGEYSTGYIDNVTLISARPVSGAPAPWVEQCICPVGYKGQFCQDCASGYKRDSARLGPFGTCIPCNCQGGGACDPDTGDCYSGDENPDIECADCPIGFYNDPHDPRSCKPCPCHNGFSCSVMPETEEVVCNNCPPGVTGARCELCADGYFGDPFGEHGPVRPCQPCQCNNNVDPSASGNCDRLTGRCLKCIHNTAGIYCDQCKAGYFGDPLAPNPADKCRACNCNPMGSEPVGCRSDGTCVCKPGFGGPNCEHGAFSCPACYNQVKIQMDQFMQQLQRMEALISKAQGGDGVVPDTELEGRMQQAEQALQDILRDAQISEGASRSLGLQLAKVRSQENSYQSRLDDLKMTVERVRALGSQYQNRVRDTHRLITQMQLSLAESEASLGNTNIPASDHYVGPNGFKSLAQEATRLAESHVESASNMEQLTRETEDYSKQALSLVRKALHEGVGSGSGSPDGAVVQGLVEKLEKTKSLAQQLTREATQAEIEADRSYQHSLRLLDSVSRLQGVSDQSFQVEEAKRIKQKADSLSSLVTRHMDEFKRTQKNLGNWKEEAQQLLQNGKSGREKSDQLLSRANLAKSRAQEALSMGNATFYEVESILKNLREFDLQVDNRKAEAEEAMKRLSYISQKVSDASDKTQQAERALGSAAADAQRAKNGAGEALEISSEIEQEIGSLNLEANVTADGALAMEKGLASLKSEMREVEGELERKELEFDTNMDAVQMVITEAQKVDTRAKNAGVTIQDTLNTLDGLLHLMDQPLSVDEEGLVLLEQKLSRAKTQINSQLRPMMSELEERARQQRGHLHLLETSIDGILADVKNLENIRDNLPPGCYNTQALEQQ

T2: His-tagged LAMC2 (UniProt Q13753)
T2 sequence: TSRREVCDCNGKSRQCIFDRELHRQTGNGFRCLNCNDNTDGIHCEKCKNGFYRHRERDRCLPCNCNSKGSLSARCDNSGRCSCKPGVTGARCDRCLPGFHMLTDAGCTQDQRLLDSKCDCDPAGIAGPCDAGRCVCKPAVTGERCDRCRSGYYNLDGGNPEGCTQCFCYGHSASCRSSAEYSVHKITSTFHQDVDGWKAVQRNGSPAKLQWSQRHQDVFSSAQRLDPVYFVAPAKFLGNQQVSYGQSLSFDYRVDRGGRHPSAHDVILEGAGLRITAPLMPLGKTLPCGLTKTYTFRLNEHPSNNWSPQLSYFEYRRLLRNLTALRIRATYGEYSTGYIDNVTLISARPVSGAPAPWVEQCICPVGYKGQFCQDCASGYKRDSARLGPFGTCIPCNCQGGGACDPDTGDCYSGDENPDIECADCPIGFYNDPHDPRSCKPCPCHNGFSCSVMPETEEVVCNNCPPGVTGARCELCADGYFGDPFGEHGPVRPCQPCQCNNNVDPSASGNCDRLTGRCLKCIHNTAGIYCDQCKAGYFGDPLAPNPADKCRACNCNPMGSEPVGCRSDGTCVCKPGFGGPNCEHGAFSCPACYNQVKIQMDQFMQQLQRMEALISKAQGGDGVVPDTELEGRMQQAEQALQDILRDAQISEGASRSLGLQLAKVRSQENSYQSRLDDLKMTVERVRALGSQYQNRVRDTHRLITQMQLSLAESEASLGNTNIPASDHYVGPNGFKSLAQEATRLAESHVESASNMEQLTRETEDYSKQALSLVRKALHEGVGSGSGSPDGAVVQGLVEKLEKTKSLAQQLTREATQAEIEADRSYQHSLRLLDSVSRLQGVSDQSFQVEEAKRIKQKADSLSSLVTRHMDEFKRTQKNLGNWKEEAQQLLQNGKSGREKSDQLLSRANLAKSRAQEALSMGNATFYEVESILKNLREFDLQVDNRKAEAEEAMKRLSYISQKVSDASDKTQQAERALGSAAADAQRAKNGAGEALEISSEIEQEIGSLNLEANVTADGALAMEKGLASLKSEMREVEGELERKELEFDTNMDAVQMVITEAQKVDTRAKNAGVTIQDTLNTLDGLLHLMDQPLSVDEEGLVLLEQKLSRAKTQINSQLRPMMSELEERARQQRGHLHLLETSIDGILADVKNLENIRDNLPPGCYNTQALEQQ


Assays:
[1] = target: myosin heavy-chain 9 (MYH9) (human (endogenous in A549 and MCF7)) (UniProt P35579); experiment: co-IP; total lysate of A549 or MCF7 cells (150 mM NaCl, 1% NP-40, 50 mM Tris-HCl pH 8.0, protease inhibitor) with anti-LAMC2, anti-MYH9 or anti-MYH10 on Dynal magnetic beads overnight at 4 °C, five washes with PBS, western blot; also control and LAMC2 overexpressing cells treated with tunicamycin
[2] = target: T1, Laminin-5γ-2 (LAMC2) (human (endogenous in A549 and MCF7)); experiment: as above
[3] = target: T2, His-tagged LAMC2; experiment: co-IP; lysate of A549 or MCF7 cells transfected with His-tagged LAMC2 plasmid (150 mM NaCl, 1% NP-40, 50 mM Tris-HCl pH 8.0), anti-His on Dynal magnetic beads overnight at 4 °C, five washes with PBS, western blot
[4] = target: myosin heavy-chain 10 (MYH10) (human (endogenous in A549 and MCF7)) (UniProt P35580); experiment: co-IP; total lysate of A549 or MCF7 cells (150 mM NaCl, 1% NP-40, 50 mM Tris-HCl pH 8.0, protease inhibitor) with anti-LAMC2, anti-MYH9 or anti-MYH10 on Dynal magnetic beads overnight at 4 °C, five washes with PBS, western blot; also control and LAMC2 overexpressing cells treated with tunicamycin
[5] = target: myosin heavy-chain 10 (MYH10) (human (endogenous in A549 and MCF7)) (UniProt P35580); experiment: as above; remark: listed apart in the source
[6] = target: myosin heavy-chain 9 (MYH9) (human (endogenous in A549 and MCF7)) (UniProt P35579); experiment: as above; remark: listed apart in the source

Molecule | binding [1] | binding [2] | binding [3] | binding [4] | binding [5] | binding [6]
myosin heavy-chain 10 (MYH10) (from UniProt P35580 1-1976) | binds | binds | binds |  |  | 
myosin heavy-chain 9 (MYH9) (from UniProt P35579 1-1960) |  | binds | binds | binds |  | 
LAMC2 of LAMC2 overexpressing cells (protein, UniProt Q13753 22-1193) TSRREVCDCNGKSRQCIFDRELHRQTGNGFRCLNCNDNTDGIHCEKCKNGFYRHRERDRCLPCNCNSKGSLSARCDNSGRCSCKPGVTGARCDRCLPGFHMLTDAGCTQDQRLLDSKCDCDPAGIAGPCDAGRCVCKPAVTGERCDRCRSGYYNLDGGNPEGCTQCFCYGHSASCRSSAEYSVHKITSTFHQDVDGWKAVQRNGSPAKLQWSQRHQDVFSSAQRLDPVYFVAPAKFLGNQQVSYGQSLSFDYRVDRGGRHPSAHDVILEGAGLRITAPLMPLGKTLPCGLTKTYTFRLNEHPSNNWSPQLSYFEYRRLLRNLTALRIRATYGEYSTGYIDNVTLISARPVSGAPAPWVEQCICPVGYKGQFCQDCASGYKRDSARLGPFGTCIPCNCQGGGACDPDTGDCYSGDENPDIECADCPIGFYNDPHDPRSCKPCPCHNGFSCSVMPETEEVVCNNCPPGVTGARCELCADGYFGDPFGEHGPVRPCQPCQCNNNVDPSASGNCDRLTGRCLKCIHNTAGIYCDQCKAGYFGDPLAPNPADKCRACNCNPMGSEPVGCRSDGTCVCKPGFGGPNCEHGAFSCPACYNQVKIQMDQFMQQLQRMEALISKAQGGDGVVPDTELEGRMQQAEQALQDILRDAQISEGASRSLGLQLAKVRSQENSYQSRLDDLKMTVERVRALGSQYQNRVRDTHRLITQMQLSLAESEASLGNTNIPASDHYVGPNGFKSLAQEATRLAESHVESASNMEQLTRETEDYSKQALSLVRKALHEGVGSGSGSPDGAVVQGLVEKLEKTKSLAQQLTREATQAEIEADRSYQHSLRLLDSVSRLQGVSDQSFQVEEAKRIKQKADSLSSLVTRHMDEFKRTQKNLGNWKEEAQQLLQNGKSGREKSDQLLSRANLAKSRAQEALSMGNATFYEVESILKNLREFDLQVDNRKAEAEEAMKRLSYISQKVSDASDKTQQAERALGSAAADAQRAKNGAGEALEISSEIEQEIGSLNLEANVTADGALAMEKGLASLKSEMREVEGELERKELEFDTNMDAVQMVITEAQKVDTRAKNAGVTIQDTLNTLDGLLHLMDQPLSVDEEGLVLLEQKLSRAKTQINSQLRPMMSELEERARQQRGHLHLLETSIDGILADVKNLENIRDNLPPGCYNTQALEQQ |  |  |  |  | binds | binds
Laminin-5γ-2 (LAMC2) (protein, UniProt Q13753 22-1193) TSRREVCDCNGKSRQCIFDRELHRQTGNGFRCLNCNDNTDGIHCEKCKNGFYRHRERDRCLPCNCNSKGSLSARCDNSGRCSCKPGVTGARCDRCLPGFHMLTDAGCTQDQRLLDSKCDCDPAGIAGPCDAGRCVCKPAVTGERCDRCRSGYYNLDGGNPEGCTQCFCYGHSASCRSSAEYSVHKITSTFHQDVDGWKAVQRNGSPAKLQWSQRHQDVFSSAQRLDPVYFVAPAKFLGNQQVSYGQSLSFDYRVDRGGRHPSAHDVILEGAGLRITAPLMPLGKTLPCGLTKTYTFRLNEHPSNNWSPQLSYFEYRRLLRNLTALRIRATYGEYSTGYIDNVTLISARPVSGAPAPWVEQCICPVGYKGQFCQDCASGYKRDSARLGPFGTCIPCNCQGGGACDPDTGDCYSGDENPDIECADCPIGFYNDPHDPRSCKPCPCHNGFSCSVMPETEEVVCNNCPPGVTGARCELCADGYFGDPFGEHGPVRPCQPCQCNNNVDPSASGNCDRLTGRCLKCIHNTAGIYCDQCKAGYFGDPLAPNPADKCRACNCNPMGSEPVGCRSDGTCVCKPGFGGPNCEHGAFSCPACYNQVKIQMDQFMQQLQRMEALISKAQGGDGVVPDTELEGRMQQAEQALQDILRDAQISEGASRSLGLQLAKVRSQENSYQSRLDDLKMTVERVRALGSQYQNRVRDTHRLITQMQLSLAESEASLGNTNIPASDHYVGPNGFKSLAQEATRLAESHVESASNMEQLTRETEDYSKQALSLVRKALHEGVGSGSGSPDGAVVQGLVEKLEKTKSLAQQLTREATQAEIEADRSYQHSLRLLDSVSRLQGVSDQSFQVEEAKRIKQKADSLSSLVTRHMDEFKRTQKNLGNWKEEAQQLLQNGKSGREKSDQLLSRANLAKSRAQEALSMGNATFYEVESILKNLREFDLQVDNRKAEAEEAMKRLSYISQKVSDASDKTQQAERALGSAAADAQRAKNGAGEALEISSEIEQEIGSLNLEANVTADGALAMEKGLASLKSEMREVEGELERKELEFDTNMDAVQMVITEAQKVDTRAKNAGVTIQDTLNTLDGLLHLMDQPLSVDEEGLVLLEQKLSRAKTQINSQLRPMMSELEERARQQRGHLHLLETSIDGILADVKNLENIRDNLPPGCYNTQALEQQ |  |  |  |  | binds | binds
